Results are given in words; binding and its absence hold for the method and conditions named. For some assays here: A result given as binding can be weak or reduced; the word gives no strength. For some assays here: Sequences can lack the tags named with a protein. For some assays here: In cells and extracts the contact can be indirect.
Experiments:
[1] = biological target: T1, catalase 1 (CAT1), full-length CDS in pGBKT7 (Nicotiana tabacum) (UniProt P49319); assay: two-hybrid
T1 sequence: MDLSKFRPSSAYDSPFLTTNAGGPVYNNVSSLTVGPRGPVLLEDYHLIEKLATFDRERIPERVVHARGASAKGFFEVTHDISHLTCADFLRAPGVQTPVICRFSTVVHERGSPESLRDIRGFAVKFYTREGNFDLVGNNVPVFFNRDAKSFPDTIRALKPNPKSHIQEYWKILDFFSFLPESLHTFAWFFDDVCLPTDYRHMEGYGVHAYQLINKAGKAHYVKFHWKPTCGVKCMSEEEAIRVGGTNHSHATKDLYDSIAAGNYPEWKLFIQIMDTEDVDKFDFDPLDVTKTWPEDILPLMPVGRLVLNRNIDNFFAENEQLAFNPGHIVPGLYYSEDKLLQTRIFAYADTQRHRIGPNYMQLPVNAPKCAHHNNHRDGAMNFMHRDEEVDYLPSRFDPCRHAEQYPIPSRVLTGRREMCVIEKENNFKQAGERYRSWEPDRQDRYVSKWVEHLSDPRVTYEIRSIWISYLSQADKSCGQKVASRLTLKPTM

[2] = biological target: T2, CAT1–nYFP (Nicotiana tabacum) (UniProt P49319); assay: split reporter; BiFC; CAT–nYFP and HCPro–cYFP co-infiltrated by Agrobacterium into N. benthamiana leaves; YFP fluorescence by confocal microscopy after at least 48 h
T2 sequence: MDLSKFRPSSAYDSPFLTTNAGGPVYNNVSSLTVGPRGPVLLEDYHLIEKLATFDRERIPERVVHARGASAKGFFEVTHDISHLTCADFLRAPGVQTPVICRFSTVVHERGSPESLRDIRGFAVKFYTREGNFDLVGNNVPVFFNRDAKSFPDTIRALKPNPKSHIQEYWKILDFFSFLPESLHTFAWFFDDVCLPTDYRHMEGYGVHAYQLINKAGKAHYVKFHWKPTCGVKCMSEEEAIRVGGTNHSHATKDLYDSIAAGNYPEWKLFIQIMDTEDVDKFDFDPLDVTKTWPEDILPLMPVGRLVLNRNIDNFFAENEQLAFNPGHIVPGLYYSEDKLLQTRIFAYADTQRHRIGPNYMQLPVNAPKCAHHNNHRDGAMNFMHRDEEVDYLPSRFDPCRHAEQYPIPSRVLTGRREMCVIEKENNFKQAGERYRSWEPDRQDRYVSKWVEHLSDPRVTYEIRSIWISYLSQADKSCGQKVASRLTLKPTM

[3] = biological target: T3, CAT1–GST (Nicotiana tabacum) (UniProt P49319); assay: pull-down; condition: approximately 10 μg of GST fusion protein in 500 μl; […]; 50 mM Tris–HCl pH 6.8, 300 mM NaCl, 1.5% glycerol, 0.6% Triton-X 100, 0.1% Tween; 2 h at 4 °C; […]; both purified
T3 sequence: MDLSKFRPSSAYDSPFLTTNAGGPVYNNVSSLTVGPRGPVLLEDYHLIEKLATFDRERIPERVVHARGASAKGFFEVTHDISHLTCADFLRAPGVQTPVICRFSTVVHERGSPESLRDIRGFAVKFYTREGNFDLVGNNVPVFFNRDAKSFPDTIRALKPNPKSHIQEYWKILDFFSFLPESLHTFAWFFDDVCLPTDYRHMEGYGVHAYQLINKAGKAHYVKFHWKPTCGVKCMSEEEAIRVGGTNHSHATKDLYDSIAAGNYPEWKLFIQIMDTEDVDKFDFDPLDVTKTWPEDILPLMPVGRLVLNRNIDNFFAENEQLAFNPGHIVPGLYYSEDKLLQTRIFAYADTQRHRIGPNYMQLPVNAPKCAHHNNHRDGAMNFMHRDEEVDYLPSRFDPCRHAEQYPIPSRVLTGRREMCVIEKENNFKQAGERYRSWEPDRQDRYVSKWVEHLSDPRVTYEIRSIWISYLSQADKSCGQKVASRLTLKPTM

[4] = biological target: GST–HCPro (Chilli veinal mottle virus); assay: pull-down; GST pull-down; GST–HCPro held on GST beads, CAT–MBP or MBP in solution; 50 mM Tris–HCl pH 6.8, 300 mM NaCl, 1.5% glycerol, 0.6% Triton-X 100, 0.1% Tween; 2 h at 4 °C; blot with anti-MBP and anti-GST; both purified

“Chilli veinal mottle virus helper component proteinase (HCPro), full-length CDS in pGADT7” was tested, and the binding [1] was “binds”.

HCPro–cYFP (Chilli veinal mottle virus) was tested, and the binding [2] was “binds”.

For “N-terminus of HCPro (HC-N, amino acids 1–100) with MBP tag (Chilli veinal mottle virus) (domain or fragment)”, the binding [3] was “no binding”.

For “central region of HCPro (residues 101–300) with MBP tag (Chilli veinal mottle virus) (domain or fragment)”, the binding [3] was “no binding”.

B1: CAT1–MBP (enzyme, UniProt P49319 1-492)
chain: MDLSKFRPSSAYDSPFLTTNAGGPVYNNVSSLTVGPRGPVLLEDYHLIEKLATFDRERIPERVVHARGASAKGFFEVTHDISHLTCADFLRAPGVQTPVICRFSTVVHERGSPESLRDIRGFAVKFYTREGNFDLVGNNVPVFFNRDAKSFPDTIRALKPNPKSHIQEYWKILDFFSFLPESLHTFAWFFDDVCLPTDYRHMEGYGVHAYQLINKAGKAHYVKFHWKPTCGVKCMSEEEAIRVGGTNHSHATKDLYDSIAAGNYPEWKLFIQIMDTEDVDKFDFDPLDVTKTWPEDILPLMPVGRLVLNRNIDNFFAENEQLAFNPGHIVPGLYYSEDKLLQTRIFAYADTQRHRIGPNYMQLPVNAPKCAHHNNHRDGAMNFMHRDEEVDYLPSRFDPCRHAEQYPIPSRVLTGRREMCVIEKENNFKQAGERYRSWEPDRQDRYVSKWVEHLSDPRVTYEIRSIWISYLSQADKSCGQKVASRLTLKPTM
B1 was tested, and the binding [4] was “binds”.
